Measurements as given in US20140023611A1 (priority 2010, published 2014).

The chains behind the UniProt entries cited, without tags or fusion partners.
UniProt Q9JJ09, whole entry: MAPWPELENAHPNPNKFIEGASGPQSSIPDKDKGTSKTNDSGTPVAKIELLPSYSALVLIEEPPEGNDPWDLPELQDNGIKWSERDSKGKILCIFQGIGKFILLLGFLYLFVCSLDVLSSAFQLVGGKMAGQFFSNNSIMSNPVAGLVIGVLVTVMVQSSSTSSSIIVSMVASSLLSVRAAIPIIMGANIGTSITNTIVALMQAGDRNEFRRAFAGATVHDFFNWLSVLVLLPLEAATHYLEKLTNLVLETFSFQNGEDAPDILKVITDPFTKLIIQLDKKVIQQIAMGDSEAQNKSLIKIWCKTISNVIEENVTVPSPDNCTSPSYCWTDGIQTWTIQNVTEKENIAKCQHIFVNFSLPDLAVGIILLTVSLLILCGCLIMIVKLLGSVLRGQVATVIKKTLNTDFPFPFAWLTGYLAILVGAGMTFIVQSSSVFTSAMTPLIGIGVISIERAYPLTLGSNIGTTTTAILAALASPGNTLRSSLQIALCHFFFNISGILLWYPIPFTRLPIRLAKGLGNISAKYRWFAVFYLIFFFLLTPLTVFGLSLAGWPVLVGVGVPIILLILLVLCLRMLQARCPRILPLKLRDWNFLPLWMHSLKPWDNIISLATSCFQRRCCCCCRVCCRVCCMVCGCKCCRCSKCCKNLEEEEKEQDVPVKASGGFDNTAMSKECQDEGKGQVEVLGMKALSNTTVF

Target: rat NaP2b (SLC34A2) (Rattus norvegicus, UniProt Q9JJ09)
Assay: Inhibition of NaP2b-mediated Pi (33P) uptake in transfected HEK293 cells, rat NaP2b
Settings: 33P Pi uptake, 0.1 mM phosphate, value given as pIC50 range, tested form: TFA

pIC50 range for rat Nap2b: 4.5-5
Structure (SMILES): O=C(O)CCSCc1cccc(C(=O)Nc2ccc(N3CCCCC3)cc2-c2cc(C(=O)N3CCCC3c3ccccc3)ccn2)c1 (stereo not shown)

The structures given here were assigned with low confidence; some may be wrong.
